# Measured values taken from PubChem BioAssay (NCATS).
# Amino acid sequences for entries named in this document (tags omitted). A change or cut given only in a name is not applied to a line headed by its entry.
# UniProt Q8WZA2: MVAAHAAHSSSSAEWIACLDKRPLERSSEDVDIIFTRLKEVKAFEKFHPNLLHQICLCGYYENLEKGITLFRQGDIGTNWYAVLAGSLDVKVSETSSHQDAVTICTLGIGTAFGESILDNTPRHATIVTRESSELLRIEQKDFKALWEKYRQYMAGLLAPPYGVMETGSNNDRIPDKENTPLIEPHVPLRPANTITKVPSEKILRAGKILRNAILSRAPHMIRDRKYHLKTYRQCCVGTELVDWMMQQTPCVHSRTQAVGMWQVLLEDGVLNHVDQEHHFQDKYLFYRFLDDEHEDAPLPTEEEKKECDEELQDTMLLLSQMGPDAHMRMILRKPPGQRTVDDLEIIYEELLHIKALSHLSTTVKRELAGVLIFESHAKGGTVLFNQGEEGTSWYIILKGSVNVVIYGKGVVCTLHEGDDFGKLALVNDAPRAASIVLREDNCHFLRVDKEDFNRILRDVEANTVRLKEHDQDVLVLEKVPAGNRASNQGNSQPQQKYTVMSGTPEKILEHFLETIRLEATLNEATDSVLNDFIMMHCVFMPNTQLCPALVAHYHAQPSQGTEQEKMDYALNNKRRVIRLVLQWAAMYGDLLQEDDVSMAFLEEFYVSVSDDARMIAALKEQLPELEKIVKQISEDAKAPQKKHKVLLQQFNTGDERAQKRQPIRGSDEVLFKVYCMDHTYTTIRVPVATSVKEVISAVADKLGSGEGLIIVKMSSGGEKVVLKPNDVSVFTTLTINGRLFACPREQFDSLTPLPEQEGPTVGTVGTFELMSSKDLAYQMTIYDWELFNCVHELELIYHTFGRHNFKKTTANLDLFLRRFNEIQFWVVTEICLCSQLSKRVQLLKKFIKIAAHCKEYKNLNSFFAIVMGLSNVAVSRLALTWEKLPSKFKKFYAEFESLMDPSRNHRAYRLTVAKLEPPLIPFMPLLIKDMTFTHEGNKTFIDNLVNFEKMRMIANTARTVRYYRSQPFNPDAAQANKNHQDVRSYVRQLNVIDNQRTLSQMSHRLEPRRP
# This list was built around the results that the source calls inconclusive (neither active nor inactive); the mix of calls is not that of the screen. Where the call is inconclusive, the potency comes from a doubtful curve fit. Calls of active or inactive are those of the source. Calls follow the shape of the dose curve; as a rule, active = well fitted curve in the direction sought with a large enough effect; inconclusive = small, poorly fitted or top-dose-only effect, or another doubt; inactive = no such curve, though single readings can be large; an effect the other way counts as inactive or inconclusive.
# Experiments:
# [1] = target: Rap guanine nucleotide exchange factor 4 (Homo sapiens) (UniProt Q8WZA2); assay: Confirmatory qHTS for antagonist of cAMP-regulated guanine nucleotide exchange factor 4 (EPAC2) (AID 1645885); details: activity change, negative = inhibition: at 12.7 µM (top of the series) unless noted; also: nearly all actives have a fitted effect of over 25% in size; as to activity change, negative = inhibition: % is scaled to controls: 0 for no effect and ±100 for the full control effect
# [2] = target: Rap guanine nucleotide exchange factor 3 (Homo sapiens) (UniProt O95398); assay: Counterscreen qHTS for agonist of cAMP-regulated guanine nucleotide exchange factor 3 (EPAC1) (AID 1645889); details: EPAC1 Rap1B-BODIPY-GDP exchange, fluorescence; activation: at 154 µM (top of the series) unless noted; also: nearly all actives have a fitted effect of over 40% in size; as to activation: % of control where 0% means no effect
# Procedure, shortened: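 Rap1B-BODIPY-GDP 250 nM + GDP 50 uM; cpds 7-pt, final 9.74 nM–152 uM (activator mode) or from 7.32 nM upwards (inhibitor mode); RT; FI 480/540 nm at 5 and 30 min, then ± cAMP, reread.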
# Potency is read from the fitted curve at half-maximal effect.
SMILES,Potency [1],Potency [2],"activity change, negative = inhibition [1]",activation [2]
CC(C)c1ccc(NS(=O)(=O)c2cn(C)c(=O)n(C)c2=O)cc1,active: 6.01 µM,"inconclusive: 0.708 µM [activator, partial curve]",–,–
Cc1nn(-c2ccccc2)c(N2CCCC2)c1/C=C1\N=C(c2ccc(OC(C)C)cc2)OC1=O,inactive,"inconclusive: 39.8 µM [activator, partial curve]",–,–
COC(=O)[C@@H]1C[C@@H](c2ccccc2)[C@H](C)C1(C)C,inactive,"inconclusive: 112 µM [activator, single point]",–,–
CN1OC[C@@H]2CN(Cc3ccc(Cl)cc3)[C@H](c3ccc(-n4ccnc4)cc3)C[C@@H]21,"inconclusive: 4.26 µM [inhibitor, partial curve]","inconclusive: 1 µM [activator, full curve, poor fit]",–,–
O=C(c1ccc(-c2ccccc2Cl)o1)N1CCC1,–,–,inconclusive: -30.6% [inhibitor],inactive: 3.77% [at 30.8 µM]
Cc1ccc(OCCn2cccn2)c(C)c1,inactive,–,–,inconclusive: 22.3% [activator]
Cn1c(N)c(C(=O)COC(=O)C2(c3ccc(Cl)cc3)CCCC2)c(=O)n(C)c1=O,"inconclusive: 0.953 µM [inhibitor, partial curve, poor fit]",–,–,inconclusive: 84.5% [activator]
N=c1c(S(=O)(=O)c2ccc(Br)cc2)cc2c(=O)n3ccccc3nc2n1C1CCCC1,"inconclusive: 19 µM [inhibitor, partial curve, poor fit]",inactive,–,–
